# According to PubChem BioAssay AID2685 (National Center for Advancing Translational Sciences (NCATS), 2010):
# The whole screen tested about 320,000 compounds, of which about 2,100 (0.66%) were called active. This list was built around the results that the source calls inconclusive (neither active nor inactive); the mix of calls is not that of the screen. Calls come from the whole dose curve; as a rule, active = well fitted inhibition curve with a large enough effect in the signal ratio, with a control signal flat (not every such curve was filed as active); inconclusive = small, poorly fitted or top-dose-only effect, or effect the other way, or a change in a side signal; inactive = flat fitted curve, though single readings scatter; the % refers to the signal ratio. Where the call is inconclusive, the potency comes from a doubtful curve fit.
# Assay: qHTS Assay for Lipid Storage Modulators in Drosophila S3 Cells
# Conditions: BODIPY lipid droplet fluorescence, 18-24 h, cells fed with added oleic acid; lipid storage change, negative = inhibition: at 46.1 µM (top of the series) unless noted
# Description: NIH Molecular Libraries Probe Production Centers Network [MLPCN] NIH Chemical Genomics Center [NCGC] MLPCN Grant: 1 R03 MH085686-01 Assay Submitter (PI): Beller, Mathias; Max-Planck-Institut fur Biophysikalische Chemie NCGC Assay Overview: Storing lipids as a reservoir for energy or the anabolism of elementary metabolites is a common feature of probably all cells and is conserved from bacteria to humans. The universal cellular lipid storage organelle is the so-called lipid storage droplet (LD). Although ubiquitous, LDs share a simple structure composed of a hydrophobic core that harbors the storage lipids, which is shielded by a droplet-specific phospholipid monolayer to which proteins are attached. The current model of LD biogenesis involves an incorporation of the lipid core into the membrane leaflets of the endoplasmic reticulum (ER) followed by a subsequent budding-like maturation of a LD, which ultimately pinches off. Once released, LD volume can increase by localized lipogenesis or fusion of existing droplet. Storage lipids are re-mobilized enzymatically by lipase activity. Lipase regulation in the adipocyte is heavily studied and involves multiple components including catecholamine signaling, the LD-associated proteins Perilipin and comparative gene identification (CGI-58) and at least two lipases named hormone sensitive lipase (HSL) and adipocyte triglyceride lipase (ATGL). LD regulation outside of the adipocyte is poorly understood and only few components are known. However, there is an urgent need to learn more about ectopic fat depots as mislocalized storage of lipids, for example in the liver or muscle, is an eminent health problem associated with insulin resistance or the metabolic syndrome. We developed a laser-scanning cytometer assay to enable 1,536-well screening and combined the results of the small molecules screen with an RNAi database based on lipid storage.
# Triacsin C (Sigma-Aldrich T-4540), an inhibitor of long-chain fatty acyl CoA synthetase that blocks synthesis of triglycerides, was used as a positive control for lipid under-storage. A total of 23 nL of compound solution of different concentrations were transferred to the assay plates using a Kalypsys pin tool equipped with a 1,536-pin array containing 10-nL slotted pins (FP1S10, 0.457-mm diameter, 50.8 mm long; V&P Scientific). One microliter of oleic acid (400 uM) was added, and the plate was lidded with stainless steel rubber gasket lined lids containing pinholes. […] Fluorescence was detected by excitation of the fluorophores with a 488-nm laser on an Acumen Explorer (TTP Lab Tech). The total intensity in channel 2 (500-530 nm) reflected lipid droplet accumulation. Cells were detected using channel 3 (575-640 nm) with 5-um width and 100-um depth filters. The ratio of the number of objects in PMT channel 2 over the number of objects in PMT channel 3 was also calculated. Percent activity was computed relative to an internal control (100% inhibited lipid droplet deposition due to the presence of 20 uM Triacsin C), which was added to 32 wells/plate.
# % is set by controls: 0 for no effect and ±100 for the full control effect; potency is the fitted concentration of half-maximal effect.
Structure (SMILES),"lipid storage change, negative = inhibition",Potency,outcome
CC(=NCc1ccco1)c1c(O)n(-c2ccccc2)c(=O)[nH]c1=O,inconclusive: 33.2%,,
CC(=O)c1c(C)n(CCCOC(C)C)c2ccc(O)cc12,inconclusive: 29.1%,,
Nc1ccccc1-[n+]1c(-c2ccccc2)cc(-c2ccccc2)cc1-c1ccccc1,,"inconclusive: 29.1 µM [cytotoxic, single point]",
CCOC(=O)c1c(C)c(P(=S)(N2CCOCC2)N2CCOCC2)n(C)c1C,inconclusive: 34.1%,,
Cc1ccc(S(=O)(=O)N2CCCCC2)cc1NC(=O)CN1CC=C(c2ccccc2)CC1,,"inconclusive: 29.1 µM [falling, partial curve, poor fit]",
COc1ccc(/C=C2/C(=O)NC(=O)N(c3ccccc3)C2=O)cc1CN1C(=O)c2ccccc2C1=O,inconclusive: 26.2%,,
Clc1ccc(C(c2ccccc2)c2ncc[nH]2)cc1 (centres undefined),inconclusive: 18.2%,,
CCCCN1C(=O)NC(=O)C2(Cc3ccccc3N3CCOCC32)C1=O (centres undefined),,"inconclusive: 29.1 µM [falling, single point]",
Cc1ccc(OP(=O)(NCc2ccccc2)Oc2ccc(C)cc2)cc1,inconclusive: 4.05%,,
CC(C)CCCn1c(O)c(/C=C2/C=CC=N2)c(=O)[nH]c1=O,inconclusive: -3.78%,,
COP(=S)(OC)c1c(C)nn(CCC#N)c1NC(=O)c1ccc(Cl)cc1,,"inconclusive: 23.1 µM [activator, partial curve]",
Nc1nnc(CCN2CCCCC2)s1,inconclusive: -0.205%,,
c1cncc(C2CCCCN2)c1 (centres undefined),inconclusive: 11.3%,,
CCOC(C[n+]1c(-c2ccccc2)cc(C)cc1-c1ccccc1)OCC,inconclusive: -25.8%,,
CCC1CCCCN1CC(=O)c1ccc(OC(F)F)cc1 (centres undefined),inactive: 1.27%,,
O=C(COc1ccc2ccccc2c1)N1CCN(CC2CC3C=CC2C3)CC1 (centres undefined),inconclusive: 23.6%,,
CCC(=NCCOc1ccc(Cl)cc1)c1c(O)n(C)c(=O)n(C)c1=O,inconclusive: -88.5%,,
Cc1cccc(C(=O)NC(Oc2ccccc2)C(Cl)(Cl)Cl)c1 (centres undefined),inconclusive: -3.17%,,
COC(=O)CCCCC1SCC(NC(=O)c2ccccc2)C1Cl (centres undefined),inconclusive: -28.2%,,
Cc1cc(C)c(C2=NOC(O)(C(F)(F)F)C2)c(=O)[nH]1 (centres undefined),,"inconclusive: 18.4 µM [activator, single point]",
COc1ccc(NC(=O)CN(C)C(=O)CSC(c2ccccc2)c2ccccc2)cc1,,"inconclusive: 29.1 µM [falling, single point]",
COC(=O)C1=C(c2ccc3ccccc3c2)C[C@@H]2CC[C@H]1N2C(=O)NCCO,inconclusive: 68.9%,,
COC(=O)C1=C(c2ccccc2OCc2ccccc2)C[C@@H]2CC[C@H]1N2C(=O)NCCCOC(C)C,inconclusive: -41%,,
CSc1ccc(CN2CCN(C(=O)COc3cccc(C)c3)CC2)cc1,inconclusive: 46.2%,,
O=c1[nH]c(=O)n(-c2ccccc2F)c(O)c1/C=C1\C=Nc2ccccc21,,"inconclusive: 25.9 µM [falling, single point]",

Structure (SMILES),"lipid storage change, negative = inhibition",Potency,outcome
CCN1C(=O)NC(=O)/C(=C\c2cn(CC(=O)N3CCCCC3)c3ccccc23)C1=O,inconclusive: -22.2%,,
COc1ccc(N2C(=O)NC(=O)/C(=C\c3ccccc3[N+](=O)[O-])C2=O)cc1,inactive: 1.36%,,
Cc1cccc(NP(=O)(Oc2ccccc2)Oc2ccccc2)c1C,inconclusive: -40%,,
OC[C@H]1O[C@@H](n2cnc3cc(Cl)c(Cl)cc32)[C@H](O)[C@@H]1O,inconclusive: 14.8%,,
O=c1c2cc(Cl)cc(Cl)c2nc(CN2CCOCC2)n1-c1ccccc1F,inactive: 20%,,
CCCCn1c(O)c(C=NCCCn2ccnc2)c(=O)[nH]c1=O,inconclusive: 13%,,
O=Cc1cn(CCCOc2ccccc2)c2ccccc12,,"inconclusive: 29.1 µM [falling, single point]",
O=c1c(/C=N/N2CCOCC2)c(O)n(-c2ccccc2)c(=S)n1-c1ccccc1,inconclusive: -14%,,
COC(=O)C1=C(c2ccc(-c3ccccc3)c(F)c2)C[C@@H]2CC[C@H]1N2C(=O)NCCOc1ccccc1Cl,,active: 14.6 µM,
OC(CC#CCN1CCCCCC1)(c1ccccc1)C1CCCC1 (centres undefined),inconclusive: -14.7%,,
CSc1ncc(/C=C2/C(=O)NC(=O)N(C3CCCCC3)C2=O)cn1,,"inconclusive: 0.184 µM [falling, full curve, poor fit]",
CC(C)OP(=O)(c1ccc(N(C)C)cc1)C(Nc1ccccc1)c1cccnc1 (centres undefined),,"inconclusive: 6.51 µM [rising, single point]",
COc1ccc(C2=CC(c3ccc(OC)c(OC)c3)c3c(c4ccccc4oc3=O)O2)cc1OC (centres undefined),inconclusive: 24.9%,,
Cc1nc2ccccc2c(=O)n1-c1cccc(O)c1,inconclusive: 2%,,
O=C1CC(=O)N(Cc2ccccc2)C(=O)N1CCCCCCN1C(=O)CC(=O)N(Cc2ccccc2)C1=O,inconclusive: 0.83%,,
COc1ccc(C(O)P(=O)(OC2CCCCC2)c2ccc(N(C)C)cc2)cc1OC (centres undefined),,"inconclusive: 0.146 µM [activator, full curve]",
O=C(NCc1ccc(C(=O)N2CCC3(CC2)OCCO3)cc1)c1cccc(Br)c1,inconclusive: 26.5%,,
COc1ccccc1OC(=O)c1ccc(C)c(S(=O)(=O)N2CCOCC2)c1,,"inconclusive: 0.58 µM [activator, single point]",
O=C(Nc1ccc(F)c([N+](=O)[O-])c1)N1C[C@H]2C[C@@H](C1)c1cccc(=O)n1C2,inconclusive: 28.4%,,
COC(=O)NC(=C(Cl)Cl)P(=O)(c1ccccc1)c1ccccc1,,"inconclusive: 0.0052 µM [falling, full curve, poor fit]",
Cc1ccc(C)c(NC(=S)NCCc2cnc[nH]2)c1,inconclusive: 7.98%,,
O=C(c1ccc(F)cc1Cl)N1CCC2(CC1)OCCO2,inconclusive: 17.5%,,
COC(=O)C1=C(c2ccc(-c3ccccc3)c(F)c2)C[C@@H]2CC[C@H]1N2C(=O)NCCOc1ccccc1,,,inactive
CN(C)C(=O)Nc1cccc(OC(=O)N(C)C)c1,,active: 32.6 µM,

# Filtered by structure: the entries above with a nitro group on carbon (2)
Structure (SMILES),"lipid storage change, negative = inhibition",Potency,outcome
COc1ccc(N2C(=O)NC(=O)/C(=C\c3ccccc3[N+](=O)[O-])C2=O)cc1,inactive: 1.36%,,
O=C(Nc1ccc(F)c([N+](=O)[O-])c1)N1C[C@H]2C[C@@H](C1)c1cccc(=O)n1C2,inconclusive: 28.4%,,
